The test concerns the target GluA1 subunit of AMPARs (endogenous, mouse brain) (mouse (endogenous in C57BL/6J brain)) (UniProt P23818). Briefly: co-IP; mouse brain (cortex, cerebellum, hippocampus of WT and CPT1C KO mice); membrane pellet solubilised in 1% IGEPAL, 50 mM Tris-HCl pH 7.5, 150 mM NaCl, 10% glycerol, 4°C; 1.5 mg protein with 2 μg anti-GluA1 overnight, Protein-A sepharose; Western blot with anti-CPT1C. (A western blot detects proteins with antibodies after separation by electrophoresis.)

The chains behind the UniProt entries cited, without tags or fusion partners. Residues count along the entry.
UniProt P23818, residues 19-907: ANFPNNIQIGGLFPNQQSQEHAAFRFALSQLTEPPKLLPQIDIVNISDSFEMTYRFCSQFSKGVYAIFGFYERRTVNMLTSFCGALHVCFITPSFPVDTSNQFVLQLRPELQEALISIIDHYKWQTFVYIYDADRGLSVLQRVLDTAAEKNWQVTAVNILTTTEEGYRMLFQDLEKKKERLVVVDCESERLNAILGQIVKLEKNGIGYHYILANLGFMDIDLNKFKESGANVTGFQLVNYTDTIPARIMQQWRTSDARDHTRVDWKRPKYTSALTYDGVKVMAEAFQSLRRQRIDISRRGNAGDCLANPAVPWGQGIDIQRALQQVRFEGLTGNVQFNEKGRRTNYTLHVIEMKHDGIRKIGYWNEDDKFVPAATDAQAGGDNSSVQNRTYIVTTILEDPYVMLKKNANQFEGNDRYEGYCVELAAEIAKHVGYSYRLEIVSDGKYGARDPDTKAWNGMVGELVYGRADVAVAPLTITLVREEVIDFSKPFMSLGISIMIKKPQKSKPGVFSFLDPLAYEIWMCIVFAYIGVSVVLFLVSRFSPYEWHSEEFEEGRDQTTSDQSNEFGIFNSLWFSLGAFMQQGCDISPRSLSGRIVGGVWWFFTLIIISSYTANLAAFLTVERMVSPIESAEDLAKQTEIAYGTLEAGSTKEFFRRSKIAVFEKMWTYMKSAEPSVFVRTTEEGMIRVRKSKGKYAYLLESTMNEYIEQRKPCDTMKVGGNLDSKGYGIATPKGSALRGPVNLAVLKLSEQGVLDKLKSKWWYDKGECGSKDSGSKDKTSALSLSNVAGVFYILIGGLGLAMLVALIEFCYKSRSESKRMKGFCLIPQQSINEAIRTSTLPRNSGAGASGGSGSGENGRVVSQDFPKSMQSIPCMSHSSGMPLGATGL

This is an account of results in PMC6092487.

No constants are given. Whether binding was seen depends on the method and setting. Binding seen in cells or lysates may run through a third protein. Some entries that bind do so weakly or less than the wild type.

B1: carnitine palmitoyltransferase 1C (endogenous, mouse brain) (enzyme, UniProt Q8BGD5 1-798)
chain: MAEAHQASSLLSSLSSDGAEVELSSPVWQEIYLCALRSWKRHLWRVWNDFLAGVVPATPLSWLFLFSTIQLACLLQLDPSLGLMEKIKELLPDWGGQHHQLQGFLSAAVFASCLWGALIFTLHVALRLLLSHHGWLLEPHGAMSSPTKTWLALVRIFSGRHPRLFSFQRALPRQPVPSAQETVRKYLESVRPVLGDDAFDRATALANDFLRLHAPRLQLYLQLKSWCTSNYVSDWWEEFVYLRSRGSLINSTYYMMDFLYVTPTPLQAARAGNAVHTLLLYRHLLNRQEISPTLLMGMRPLCSAQYERMFNTTRIPGVEKDHLRHLQDSRHVAVFHRGRFFRVGTHSPNGLLSPRALEQQFQDILDDPSPACPLEEHLAALTAAPRSMWAQVRESVKTHAATALEAVEGAAFFVSLDSEPAGLTREDPAASLDAYAHALLAGRGHDRWFDKSFTLIVFSNGKLGLSVEHSWADCPVSGHLWEFTLATECFQLGYATDGHCKGHPDPTLPQPQRLQWDLPEQIQPSISLALRGAKTLSGNIDCHVFPFSHFGKSFIKCCHVSSDSFIQLVLQLAHFRDRGQFCLTYESAMTRLFLEGRTETVRSCTREACQFVRAMDNKETDQHCLALFRVAVDKHQALLKAAMSGQGIDRHLFALYIMSRLLHMQSPFLTQVQSQQWLLSTSQVPVQQTHLIDVHNYPDYVSSGGGFGPAHDHGYGISYIFMGENAITFHISSKKSSTETDSHRLGQHIENALLDVASLFRVGQHFKRQFRGENSDYRYNFLSCKTVDPNTPTSSTNL
For B1, the binding entry was “binds”.
